# Measurements as given in paper PMC7862700.
# The entries are a selection whose mix differs from that of the whole data set. At the low end of the ranking, values are background and their order means little.
# Molecular target: T1, FEV (UniProt Q99581)
# T1 sequence: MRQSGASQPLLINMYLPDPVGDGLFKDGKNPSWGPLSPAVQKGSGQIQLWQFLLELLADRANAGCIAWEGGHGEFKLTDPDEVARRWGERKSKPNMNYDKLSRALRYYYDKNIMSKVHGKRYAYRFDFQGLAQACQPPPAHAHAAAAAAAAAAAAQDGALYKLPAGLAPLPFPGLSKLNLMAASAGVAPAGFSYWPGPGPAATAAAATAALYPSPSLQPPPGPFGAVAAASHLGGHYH
# Experiment: DAPPL (digital affinity profiling via proximity ligation, sequencing)
# Details: 10 mM Tris-HCl pH 7.5, 50 mM NaCl, 1 mM DTT, 4% glycerol, room temperature, 30 min; GST-TFs on glutathione beads, 16-mer random dsDNA library, 0.1% …; high values mean tight binding; double strand, one strand shown; scale: fold enrichment (6-mer frequency, TF over GST control)
row,Sequence,binding signal
1,GTAAGC,0.898
2,CGTAAA,1.04
3,TAACTA,1.25
4,AAGCCC,1.06
5,TGGATC,0.931
6,TCGTTA,0.859
7,TCGAGA,0.6
8,AGGGTT,0.895
9,TCATCA,1.12
10,GGGATT,0.83
11,GCGATT,0.892
12,TTAGAT,1.01
13,CTCCCC,1.4
14,CGAGAT,0.833
15,GCGGCT,0.954
16,AGCTTG,0.845
17,TGTGAT,0.958
18,GATAAG,0.785
19,TAGTTG,0.908

row,Sequence,binding signal
1,TGGATT,0.951
2,GCATTA,0.774
3,ATCCCG,1.35
4,CTATTA,0.997
5,AGATAT,0.875
6,TTTGAT,1.17
7,CCAGAT,0.921
8,AGAGCT,0.879
9,CCTTTG,1.31
10,TGAATC,0.955
11,TCCAGC,0.98
12,TAAGAG,0.829
13,ATCGCA,1.01
14,AGATCT,0.924
15,TCCAAA,1.18
16,GATTAG,0.794
17,CTACGT,1.28
18,AGGATT,0.933

# Molecular target: T2, ELF5 (UniProt Q9UKW6-2)
# T2 sequence: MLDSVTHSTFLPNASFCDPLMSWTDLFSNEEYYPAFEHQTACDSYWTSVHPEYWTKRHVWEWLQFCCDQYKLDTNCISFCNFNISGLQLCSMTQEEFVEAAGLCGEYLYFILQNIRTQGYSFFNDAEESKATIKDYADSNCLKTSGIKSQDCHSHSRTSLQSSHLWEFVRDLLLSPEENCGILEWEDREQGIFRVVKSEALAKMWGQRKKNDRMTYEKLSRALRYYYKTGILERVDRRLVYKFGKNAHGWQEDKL
# Experiment: as above
# Details: 10 mM Tris-HCl pH 7.5, 50 mM NaCl, 1 mM DTT, 4% glycerol, room temperature, 30 min; GST-TFs on glutathione beads, 16-mer random dsDNA library, 0.1% …; high values mean tight binding; double strand, one strand shown; scale: fold enrichment (6-mer frequency, TF over GST control)
row,Sequence,binding signal
1,GTAAGC,0.934
2,CGTAAA,1.14
3,CTTTGC,1.29
4,TAACTA,1.3
5,AAGCCC,1.02
6,TGGATC,0.927
7,TCGTTA,0.931
8,TCGAGA,0.581
9,TTCGAC,1.36
10,AGGGTT,0.913
11,TCATCA,1.16
12,GGGATT,0.852
13,GCGATT,0.87
14,TTAGAT,0.988
15,CTCCCC,1.33
16,CGAGAT,0.847
17,GCGGCT,0.941
18,AGCTTG,0.884
19,TGTGAT,0.95
20,GATAAG,0.951

row,Sequence,binding signal
1,TAGTTG,0.931
2,TGGATT,0.975
3,GCATTA,0.782
4,ATCCCG,1.7
5,CTATTA,1.1
6,AGATAT,1.06
7,TTTGAT,1.26
8,CCAGAT,0.889
9,AGAGCT,0.938
10,CCTTTG,1.31
11,TGAATC,0.924
12,TCCAGC,0.942
13,TAAGAG,0.886
14,ATCGCA,0.975
15,AGATCT,0.934
16,TCCAAA,1.15
17,GATTAG,0.809
18,CTACGT,1.27
19,AGGATT,0.969
